Consider 2 sequences from paper PMC3070698.

The series concerns the target T1, TLR9-EGFP (UniProt Q9NR96).
T1 sequence (looked up, limits assumed): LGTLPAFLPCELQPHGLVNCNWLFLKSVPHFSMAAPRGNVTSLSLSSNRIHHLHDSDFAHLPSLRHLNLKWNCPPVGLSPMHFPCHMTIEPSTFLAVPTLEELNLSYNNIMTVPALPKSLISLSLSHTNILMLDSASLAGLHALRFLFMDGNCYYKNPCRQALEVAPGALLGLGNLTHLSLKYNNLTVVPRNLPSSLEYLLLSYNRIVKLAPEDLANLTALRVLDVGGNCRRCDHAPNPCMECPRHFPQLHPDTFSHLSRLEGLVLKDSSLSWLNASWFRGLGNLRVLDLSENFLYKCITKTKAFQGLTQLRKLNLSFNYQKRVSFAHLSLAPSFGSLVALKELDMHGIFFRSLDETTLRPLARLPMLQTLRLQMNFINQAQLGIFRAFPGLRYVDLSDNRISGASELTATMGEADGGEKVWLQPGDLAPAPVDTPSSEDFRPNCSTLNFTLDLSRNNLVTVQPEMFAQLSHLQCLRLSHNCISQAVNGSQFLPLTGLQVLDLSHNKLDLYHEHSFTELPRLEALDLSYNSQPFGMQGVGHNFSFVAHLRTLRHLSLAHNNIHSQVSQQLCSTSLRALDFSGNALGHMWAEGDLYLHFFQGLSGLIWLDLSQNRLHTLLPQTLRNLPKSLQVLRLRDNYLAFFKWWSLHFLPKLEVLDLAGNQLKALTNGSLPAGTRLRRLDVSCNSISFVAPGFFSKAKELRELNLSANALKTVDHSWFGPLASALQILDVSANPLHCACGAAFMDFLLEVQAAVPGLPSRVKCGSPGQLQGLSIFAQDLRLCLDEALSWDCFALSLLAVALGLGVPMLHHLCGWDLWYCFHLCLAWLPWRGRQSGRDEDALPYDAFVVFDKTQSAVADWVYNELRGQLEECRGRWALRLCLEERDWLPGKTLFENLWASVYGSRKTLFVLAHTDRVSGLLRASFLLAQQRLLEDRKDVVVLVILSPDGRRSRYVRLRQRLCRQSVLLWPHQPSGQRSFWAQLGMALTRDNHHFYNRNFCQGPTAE
Description: FCCS (live cell). Conditions: live HEK 293 cells, Kd calculated with TLR9 dimer concentration, 2:1 TLR9:DNA by 2dPCH; phosphorothioate backbone; In live HEK 293 cells (intracellular, endosomal compartments); protein in a lysate after overexpression; protein details: C-terminal EGFP; label: 3' Cy5; single-stranded DNA.

Construct, isoform or probe ends are uncertain for at least one entry. Results from cells or extracts need not show a direct contact. Tags and fusion partners may be left off the protein sequences shown.

What is called Kd is the concentration at which binding is half-saturated. For TCGTCGTTTTGTCGTTTTGTCGTT [CpG DNA], the Kd is 62 nM.

Take TGCTGCTTGTGCTTTTGTGCTT [non CpG DNA]: the Kd was 153 nM.
